For this experiment, the target named is P2X7 (UniProt Q99572). Description: P2X7 activity of Table 1. The following applies: pIC50 values for P2X7.

Protein sequences, listed by entry. Tags and fused reporters are not part of them.
UniProt Q99572, whole entry: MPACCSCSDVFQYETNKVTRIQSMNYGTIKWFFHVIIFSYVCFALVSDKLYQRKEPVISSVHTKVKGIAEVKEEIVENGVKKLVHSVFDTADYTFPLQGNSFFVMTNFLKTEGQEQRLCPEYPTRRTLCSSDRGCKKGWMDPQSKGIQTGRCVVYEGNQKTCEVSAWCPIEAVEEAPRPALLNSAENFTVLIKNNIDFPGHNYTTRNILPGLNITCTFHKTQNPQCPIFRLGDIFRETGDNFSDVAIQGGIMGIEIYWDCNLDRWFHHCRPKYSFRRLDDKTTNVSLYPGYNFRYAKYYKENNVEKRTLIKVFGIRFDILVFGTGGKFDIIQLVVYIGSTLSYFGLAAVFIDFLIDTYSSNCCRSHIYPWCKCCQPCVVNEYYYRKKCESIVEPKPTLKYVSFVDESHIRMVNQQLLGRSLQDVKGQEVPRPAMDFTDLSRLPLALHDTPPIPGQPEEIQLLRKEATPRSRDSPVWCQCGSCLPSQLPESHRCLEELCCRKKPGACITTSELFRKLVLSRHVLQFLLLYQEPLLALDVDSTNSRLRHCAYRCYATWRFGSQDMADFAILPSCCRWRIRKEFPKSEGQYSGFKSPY

The structures given here were assigned with low confidence; some may be wrong.

Broadly, the pKi is −log10 of the Ki, conventionally taken in molar units. The low end stands for a large Ki, the high end for a small Ki. `O=C1C[C@@H](c2ccc(F)cc2)C(C(=O)Nc2cc(-c3cc[nH]n3)ccc2C(F)(F)F)=CN1`: the pKi worked out at 7.173.

These data come from patent US8163929B2, “Dihydropyridone amides as P2X7 modulators” (Roche Palo Alto LLC, priority 2008, dated 2012).
